Paper PMC3961693
No signal at the amounts used counts as a negative. At least one verdict was read from the data and is not stated in words by the source.

Protein sequences, listed by entry. Tags and fused reporters are not part of them. Residues count along the entry.
UniProt P05231, 30-212: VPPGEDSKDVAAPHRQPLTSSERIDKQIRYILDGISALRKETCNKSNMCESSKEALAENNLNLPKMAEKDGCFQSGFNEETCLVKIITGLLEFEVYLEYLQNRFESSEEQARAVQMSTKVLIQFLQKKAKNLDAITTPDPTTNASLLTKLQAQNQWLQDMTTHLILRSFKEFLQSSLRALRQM

Target: IL-6 (human) (UniProt P05231)
Experiment: binding assay
Settings: folded or branched DNA

**Q.** Does GTGGTTGG [thrombin-binding DNA aptamer] bind?
**A.** Result: no binding
